From the supplement of paper PMC11438910
Some of the results follow. The signal is at background level for most entries.

Columns and labels:
Assay in all cases: fluorescence intensity of antibody binding to polysaccharide-coupled beads; higher = stronger binding
[1] = biological target: pneumococcal polysaccharide Pn6A
[2] = biological target: pneumococcal polysaccharide Pn6B
[3] = biological target: pneumococcal polysaccharide Pn6C
[4] = biological target: pneumococcal polysaccharide Pn6D
[5] = biological target: pneumococcal polysaccharide Pn7A
[6] = biological target: pneumococcal polysaccharide Pn7B
[7] = biological target: pneumococcal polysaccharide Pn7C
[8] = biological target: pneumococcal polysaccharide Pn7F
[9] = biological target: pneumococcal polysaccharide Pn8
[10] = biological target: pneumococcal polysaccharide Pn9A
[11] = biological target: pneumococcal polysaccharide Pn9L
[12] = biological target: pneumococcal polysaccharide Pn9N
[13] = antibody concentration 81.7561 ng/mL
[14] = antibody concentration 437.17 ng/mL
[15] = antibody concentration 2337.65 ng/mL
[16] = antibody concentration 12500 ng/mL
[17] = antibody concentration 0.1 ng/mL
[18] = antibody concentration 0.534724 ng/mL
[19] = antibody concentration 2.8593 ng/mL
[20] = antibody concentration 15.2894 ng/mL

B1: 3S41.3 (protein)
chain 1: EVQLVESGGGLVQPGGSLRLSCATSGFTFSNYWMYWFRQAPGKGLEWVSTISGSSSNTYYPDSVKGRFTISRDNAKNTLYLQINSLRAEDTAVYYCARRHDHSSGWAFDYWGQGVLVTVSS
chain 2: EIVMTQSPATLSLSPGERATLSCRASQSVGSNLAWYQQKPGQAPKLLIYDASSRATGIPDRFSGSGSGTDFTLTVSSLEPEDVGVYYCQQYNNWKTFGQGTKVEIK
- fluorescence intensity [1, 13]: 23 MFI
- fluorescence intensity [1, 14]: 28 MFI
- fluorescence intensity [1, 15]: 37.5 MFI
- fluorescence intensity [1, 16]: 68 MFI
- fluorescence intensity [2, 17]: 17.2 MFI
- fluorescence intensity [2, 18]: 19.2 MFI
- fluorescence intensity [2, 19]: 17.5 MFI
- fluorescence intensity [2, 20]: 17.5 MFI
- fluorescence intensity [2, 13]: 22.8 MFI
- fluorescence intensity [2, 14]: 24.5 MFI
- fluorescence intensity [2, 15]: 35.8 MFI
- fluorescence intensity [2, 16]: 66.5 MFI
- fluorescence intensity [3, 17]: 15 MFI
- fluorescence intensity [3, 18]: 17.5 MFI
- fluorescence intensity [3, 19]: 16 MFI
- fluorescence intensity [3, 20]: 17.5 MFI
- fluorescence intensity [3, 13]: 33 MFI
- fluorescence intensity [3, 14]: 53.8 MFI
- fluorescence intensity [3, 15]: 88.2 MFI
- fluorescence intensity [3, 16]: 166 MFI
- fluorescence intensity [4, 17]: 16 MFI
- fluorescence intensity [4, 18]: 16.2 MFI
- fluorescence intensity [4, 19]: 16 MFI
- fluorescence intensity [4, 20]: 18 MFI
- fluorescence intensity [4, 13]: 19 MFI
- fluorescence intensity [4, 14]: 19 MFI
- fluorescence intensity [4, 15]: 24 MFI
- fluorescence intensity [4, 16]: 50.5 MFI
- fluorescence intensity [5, 17]: 20.5 MFI
- fluorescence intensity [5, 18]: 19.8 MFI
- fluorescence intensity [5, 19]: 18.5 MFI
- fluorescence intensity [5, 20]: 21.2 MFI
- fluorescence intensity [5, 13]: 22.5 MFI
- fluorescence intensity [5, 14]: 70.5 MFI
- fluorescence intensity [5, 15]: 582 MFI
- fluorescence intensity [5, 16]: 1840 MFI
- fluorescence intensity [6, 17]: 16.5 MFI
- fluorescence intensity [6, 18]: 15 MFI
- fluorescence intensity [6, 19]: 15 MFI
- fluorescence intensity [6, 20]: 14.8 MFI
- fluorescence intensity [6, 13]: 16.5 MFI
- fluorescence intensity [6, 14]: 21.5 MFI
- fluorescence intensity [6, 15]: 55.2 MFI
- fluorescence intensity [6, 16]: 270 MFI
- fluorescence intensity [7, 17]: 17 MFI
- fluorescence intensity [7, 18]: 16.2 MFI
- fluorescence intensity [7, 19]: 16 MFI
- fluorescence intensity [7, 20]: 16.8 MFI
- fluorescence intensity [7, 13]: 15.8 MFI
- fluorescence intensity [7, 14]: 21 MFI
- fluorescence intensity [7, 15]: 66 MFI
- fluorescence intensity [7, 16]: 259 MFI
- fluorescence intensity [8, 17]: 13.5 MFI
- fluorescence intensity [8, 18]: 13.5 MFI
- fluorescence intensity [8, 19]: 14.5 MFI
- fluorescence intensity [8, 20]: 14.5 MFI
- fluorescence intensity [8, 13]: 19.5 MFI
- fluorescence intensity [8, 14]: 95 MFI
- fluorescence intensity [8, 15]: 1000 MFI
- fluorescence intensity [8, 16]: 1750 MFI
- fluorescence intensity [9, 17]: 21.5 MFI
- fluorescence intensity [9, 18]: 22 MFI
- fluorescence intensity [9, 19]: 21.8 MFI
- fluorescence intensity [9, 20]: 21.5 MFI
- fluorescence intensity [9, 13]: 24.8 MFI
- fluorescence intensity [9, 14]: 32 MFI
- fluorescence intensity [9, 15]: 52 MFI
- fluorescence intensity [9, 16]: 112 MFI
- fluorescence intensity [10, 17]: 19 MFI
- fluorescence intensity [10, 18]: 19 MFI
- fluorescence intensity [10, 19]: 19 MFI
- fluorescence intensity [10, 20]: 19.5 MFI
- fluorescence intensity [10, 13]: 18.2 MFI
- fluorescence intensity [10, 14]: 27.5 MFI
- fluorescence intensity [10, 15]: 89 MFI
- fluorescence intensity [10, 16]: 358 MFI
- fluorescence intensity [11, 17]: 17 MFI
- fluorescence intensity [11, 18]: 17 MFI
- fluorescence intensity [11, 19]: 16.2 MFI
- fluorescence intensity [11, 20]: 17.8 MFI
- fluorescence intensity [11, 13]: 17.5 MFI
- fluorescence intensity [11, 14]: 20.8 MFI
- fluorescence intensity [11, 15]: 56 MFI
- fluorescence intensity [11, 16]: 167 MFI
- fluorescence intensity [12, 17]: 14.5 MFI
- fluorescence intensity [12, 18]: 15 MFI
- fluorescence intensity [12, 19]: 15 MFI
- fluorescence intensity [12, 20]: 14.5 MFI
- fluorescence intensity [12, 13]: 15.2 MFI
- fluorescence intensity [12, 14]: 20.5 MFI
